Where two headings read alike, the source gives them in different places.

The subject of data set [1] is yeast Saccharomyces cerevisiae. The data set can be described thus: Simultaneous saccharification and fermentation (SSF) of sugarcane bagass slurry. The class given is cell-based. Conditions: 7.5 and 10 mM. On the procedure: The pretreatment of sugarcane bagass for SSF experiments was performed in the Swedish cellulosic ethanol pilot plant (operated by SEKAB E-Technology, Örnskoldsvik, Sweden). Sugarcane bagass was treated in a continuous mode in a 30-liter reactor at a temperature of 198-199° C. and with a residence time of 13-14 min. The feed rate was 24 kg (dry weight) per h and the bagass was impregnated with sulfur dioxide (0.5 kg/h). The pH after pretreatment was 2.7. The dry matter content was 19%. The pretreated material was cooled and stored at 4° C. until further use.
SSF experiments were also performed with sugarcane bagass slurries. The sugarcane bagass slurries were prepared as described in Example 1. Reducing agents, dithionite and sulphite, respectively, were added 10 min prior to inoculum in concentrations of studied 7.5 and 10 mM. The ethanol concentration was measured after 13 and 45 hours according to the protocol described in Example 1.

Setting [2] is: 5 mM added, pH 5.5, 23° C., 10 min.
Setting [3] is: 10 mM added, pH 5.5, 23° C., 10 min.
The mark [4] stands for this setting: ammonium hydroxide detoxification, pH 9, 55° C., 3 h.

As for `O=S([O-])S(=O)[O-].[Na+].[Na+]` [Dithionite, Sodium dithionite], the Formation of precipitates result in data set [1] is given as “did not lead to any formation of precipitates”. In addition, under setting [2], the “Concentration of Arabin. (arabinose)” value turned out to be 0.2 ± 0.1 g/L, the “Concentration of Galact (galactose)” value came out at 9.4 ± 0.1 g/L, the “Concentration of HMF (2-hydroxymethylfurfural)” value (from here on “Concentration of HMF”) came to 3.0 ± 0.1 g/L and the “Concentration of Phen. (phenolic compounds)” value was 0.62 ± 0.01 g/L. In addition, under setting [2], the “Concentration of acetic acid” value is given as 3.4 ± 0.1 g/L, the “Concentration of formic acid” value was 0.7 ± 0.1 g/L, the Concentration of furfural stood at 0.9 ± 0.1 g/L and the Concentration of glucose came to 85.3 ± 0.6 g/L. Also, under setting [2], the “Concentration of levulinic acid” value was found to be 0.3 ± 0.1 g/L, the Concentration of mannose amounted to 0.4 ± 0.1 g/L and the Concentration of xylose came out at 14.5 ± 0.3 g/L. Also, under setting [3], the “Concentration of Arabin. (arabinose)” value is recorded as 0.3 ± 0.1 g/L, the “Concentration of Galact (galactose)” value is 9.5 ± 0.4 g/L, the “Concentration of HMF” value turned out to be 3.0 ± 0.1 g/L and the “Concentration of Phen. (phenolic compounds)” value is 0.54 ± 0.06 g/L. Under setting [3], the “Concentration of acetic acid” value stood at 3.6 ± 0.3 g/L, the “Concentration of formic acid” value was 0.8 ± 0.1 g/L, the Concentration of furfural is on record as 0.9 ± 0.1 g/L and the Concentration of glucose is 85.8 ± 0.4 g/L. For the same molecule, under setting [3], the “Concentration of levulinic acid” value amounted to 0.3 ± 0.1 g/L, the Concentration of mannose is recorded as 0.3 ± 0.1 g/L and the Concentration of xylose was determined as 14.3 ± 0.7 g/L.

`N` [NH4OH, ammonium hydroxide, reference compound]: under setting [4], the “Concentration of Arabin. (arabinose)” value was found to be 0.2 ± 0.1 g/L, the “Concentration of Galact (galactose)” value worked out at 8.6 ± 0.1 g/L, the “Concentration of HMF” value came to 1.6 ± 0.1 g/L and the “Concentration of Phen. (phenolic compounds)” value is on record as 0.60 ± 0.01 g/L. Moreover, under setting [4], the “Concentration of acetic acid” value is 3.2 ± 0.1 g/L, the “Concentration of formic acid” value worked out at 0.7 ± 0.1 g/L, the Concentration of furfural is listed as 0.6 ± 0.1 g/L and the Concentration of glucose was 85.8 ± 0.4 g/L. Under setting [4], the “Concentration of levulinic acid” value came to 0.2 ± 0.1 g/L, the Concentration of mannose turned out to be 0.3 ± 0.1 g/L and the Concentration of xylose is 12.6 ± 0.2 g/L.

Turning to `O=S([O-])[O-].[Na+].[Na+]` [Sulphite, sodium sulphite], in data set [1], the Formation of precipitates result was “did not lead to any formation of precipitates”. Under setting [2], the “Concentration of Arabin. (arabinose)” value is reported as 0.2 ± 0.1 g/L, the “Concentration of Galact (galactose)” value was found to be 9.6 ± 0.7 g/L, the “Concentration of HMF” value is reported as 2.9 ± 0.1 g/L and the “Concentration of Phen. (phenolic compounds)” value came out at 0.56 ± 0.04 g/L. Under setting [2], the “Concentration of acetic acid” value worked out at 3.1 ± 0.4 g/L, the “Concentration of formic acid” value worked out at 0.7 ± 0.1 g/L, the Concentration of furfural is on record as 1.0 ± 0.1 g/L and the Concentration of glucose was 85.0 ± 0.2 g/L. For the same molecule, under setting [2], the “Concentration of levulinic acid” value is reported as 0.3 ± 0.1 g/L, the Concentration of mannose is recorded as 0.3 ± 0.1 g/L and the Concentration of xylose worked out at 14.1 ± 0.3 g/L. Moreover, under setting [3], the “Concentration of Arabin. (arabinose)” value stood at 0.2 ± 0.1 g/L, the “Concentration of Galact (galactose)” value worked out at 9.6 ± 0.1 g/L, the “Concentration of HMF” value is on record as 3.0 ± 0.1 g/L and the “Concentration of Phen. (phenolic compounds)” value amounted to 0.63 ± 0.01 g/L. Under setting [3], the “Concentration of acetic acid” value was 3.3 ± 0.1 g/L, the “Concentration of formic acid” value is on record as 0.7 ± 0.1 g/L, the Concentration of furfural is on record as 1.0 ± 0.1 g/L and the Concentration of glucose worked out at 85.6 ± 0.2 g/L. Besides, under setting [3], the “Concentration of levulinic acid” value is 0.3 ± 0.1 g/L, the Concentration of mannose was found to be 0.4 ± 0.1 g/L and the Concentration of xylose amounted to 14.3 ± 0.1 g/L.

For the origin of these results see US8795997B2 (priority 2009, dated 2014).
